In the supplement of paper PMC10849652:
Some of the results follow.

Chains of the proteins cited; added tags and fusions are not shown. Lines headed by an entry give the natural chain unless they say otherwise; changes in a name come on top.
UniProt Q5JTV8: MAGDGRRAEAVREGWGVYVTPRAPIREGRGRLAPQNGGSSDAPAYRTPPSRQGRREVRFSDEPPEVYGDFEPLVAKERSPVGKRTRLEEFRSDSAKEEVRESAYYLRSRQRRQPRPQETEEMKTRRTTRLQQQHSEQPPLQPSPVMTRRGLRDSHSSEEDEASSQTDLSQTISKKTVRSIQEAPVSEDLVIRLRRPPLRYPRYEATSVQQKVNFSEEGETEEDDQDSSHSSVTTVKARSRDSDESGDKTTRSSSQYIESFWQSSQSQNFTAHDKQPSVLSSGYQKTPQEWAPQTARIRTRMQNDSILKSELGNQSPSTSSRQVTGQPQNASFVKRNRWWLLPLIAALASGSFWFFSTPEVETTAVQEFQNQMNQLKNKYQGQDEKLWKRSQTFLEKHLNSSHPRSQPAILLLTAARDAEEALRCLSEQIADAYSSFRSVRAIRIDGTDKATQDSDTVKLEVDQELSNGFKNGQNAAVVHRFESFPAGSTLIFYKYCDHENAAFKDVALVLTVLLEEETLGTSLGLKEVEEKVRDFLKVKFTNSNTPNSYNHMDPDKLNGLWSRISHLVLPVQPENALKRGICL
UniProt Q9UJA5: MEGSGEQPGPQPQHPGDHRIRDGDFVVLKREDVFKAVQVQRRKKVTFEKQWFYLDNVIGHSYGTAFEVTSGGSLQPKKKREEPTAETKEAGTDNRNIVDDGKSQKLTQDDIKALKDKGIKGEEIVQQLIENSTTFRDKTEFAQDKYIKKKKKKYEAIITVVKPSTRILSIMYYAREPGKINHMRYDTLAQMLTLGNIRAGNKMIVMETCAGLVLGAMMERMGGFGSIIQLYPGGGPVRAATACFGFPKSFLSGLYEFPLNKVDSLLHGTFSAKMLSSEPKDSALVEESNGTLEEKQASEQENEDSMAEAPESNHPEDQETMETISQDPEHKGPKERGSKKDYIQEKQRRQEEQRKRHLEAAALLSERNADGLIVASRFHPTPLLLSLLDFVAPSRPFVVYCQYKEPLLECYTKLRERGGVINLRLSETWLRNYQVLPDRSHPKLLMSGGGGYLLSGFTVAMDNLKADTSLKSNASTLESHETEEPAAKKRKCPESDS
UniProt O14545: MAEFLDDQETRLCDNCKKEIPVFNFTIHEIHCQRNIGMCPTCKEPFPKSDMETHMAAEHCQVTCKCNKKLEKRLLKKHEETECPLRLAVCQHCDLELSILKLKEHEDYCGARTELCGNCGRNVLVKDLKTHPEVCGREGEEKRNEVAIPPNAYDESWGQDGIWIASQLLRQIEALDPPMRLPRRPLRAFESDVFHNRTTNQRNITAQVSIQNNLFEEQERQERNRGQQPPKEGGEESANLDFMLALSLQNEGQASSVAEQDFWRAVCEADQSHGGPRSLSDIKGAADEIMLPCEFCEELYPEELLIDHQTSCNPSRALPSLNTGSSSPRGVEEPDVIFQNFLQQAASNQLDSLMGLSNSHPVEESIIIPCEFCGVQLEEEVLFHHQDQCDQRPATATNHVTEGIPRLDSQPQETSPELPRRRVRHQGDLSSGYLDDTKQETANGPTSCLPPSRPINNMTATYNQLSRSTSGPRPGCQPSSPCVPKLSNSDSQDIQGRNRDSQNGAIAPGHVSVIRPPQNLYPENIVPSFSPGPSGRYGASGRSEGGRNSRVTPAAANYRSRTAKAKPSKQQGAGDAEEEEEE
UniProt Q02880: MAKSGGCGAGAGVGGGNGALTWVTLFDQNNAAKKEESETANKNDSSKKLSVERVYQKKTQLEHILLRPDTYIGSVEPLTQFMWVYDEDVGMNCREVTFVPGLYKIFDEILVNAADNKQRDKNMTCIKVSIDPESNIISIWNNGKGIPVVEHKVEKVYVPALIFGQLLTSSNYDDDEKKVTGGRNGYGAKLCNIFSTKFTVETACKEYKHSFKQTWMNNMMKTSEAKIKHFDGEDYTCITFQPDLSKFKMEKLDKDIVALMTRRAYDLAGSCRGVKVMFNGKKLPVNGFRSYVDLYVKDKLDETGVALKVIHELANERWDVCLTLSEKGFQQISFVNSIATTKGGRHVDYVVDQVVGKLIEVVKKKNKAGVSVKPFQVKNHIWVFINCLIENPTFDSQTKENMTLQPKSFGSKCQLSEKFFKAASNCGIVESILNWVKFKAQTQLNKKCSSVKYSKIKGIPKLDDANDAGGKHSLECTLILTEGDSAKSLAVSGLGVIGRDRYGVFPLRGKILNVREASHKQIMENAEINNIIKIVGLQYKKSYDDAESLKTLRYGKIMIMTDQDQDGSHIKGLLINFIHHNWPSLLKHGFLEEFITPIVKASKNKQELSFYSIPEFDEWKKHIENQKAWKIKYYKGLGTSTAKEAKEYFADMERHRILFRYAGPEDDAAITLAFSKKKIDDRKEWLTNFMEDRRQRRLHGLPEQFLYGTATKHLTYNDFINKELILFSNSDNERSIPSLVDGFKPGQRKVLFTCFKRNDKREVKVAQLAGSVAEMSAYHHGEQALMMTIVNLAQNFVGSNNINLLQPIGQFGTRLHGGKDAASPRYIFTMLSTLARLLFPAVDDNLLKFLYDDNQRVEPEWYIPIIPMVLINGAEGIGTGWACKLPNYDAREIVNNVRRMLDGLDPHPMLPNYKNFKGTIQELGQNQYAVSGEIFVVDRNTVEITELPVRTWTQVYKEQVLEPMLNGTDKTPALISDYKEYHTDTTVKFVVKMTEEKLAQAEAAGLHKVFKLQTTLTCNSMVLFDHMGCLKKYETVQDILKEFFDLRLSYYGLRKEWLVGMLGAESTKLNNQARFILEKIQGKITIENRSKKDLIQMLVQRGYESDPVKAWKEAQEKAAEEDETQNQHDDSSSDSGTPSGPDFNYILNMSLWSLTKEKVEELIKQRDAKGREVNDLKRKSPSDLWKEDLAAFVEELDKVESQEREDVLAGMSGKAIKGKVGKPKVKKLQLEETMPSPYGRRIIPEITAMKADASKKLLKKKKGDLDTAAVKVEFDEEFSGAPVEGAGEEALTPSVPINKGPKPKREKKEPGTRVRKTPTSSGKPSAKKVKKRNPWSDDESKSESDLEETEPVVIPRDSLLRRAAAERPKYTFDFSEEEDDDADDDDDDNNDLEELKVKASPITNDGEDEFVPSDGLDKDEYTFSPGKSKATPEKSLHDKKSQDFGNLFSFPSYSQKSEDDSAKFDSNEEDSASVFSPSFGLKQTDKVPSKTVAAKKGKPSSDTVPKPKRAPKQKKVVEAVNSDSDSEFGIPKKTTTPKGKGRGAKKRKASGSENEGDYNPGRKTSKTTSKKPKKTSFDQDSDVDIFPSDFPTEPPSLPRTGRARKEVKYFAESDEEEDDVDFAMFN
UniProt Q16890: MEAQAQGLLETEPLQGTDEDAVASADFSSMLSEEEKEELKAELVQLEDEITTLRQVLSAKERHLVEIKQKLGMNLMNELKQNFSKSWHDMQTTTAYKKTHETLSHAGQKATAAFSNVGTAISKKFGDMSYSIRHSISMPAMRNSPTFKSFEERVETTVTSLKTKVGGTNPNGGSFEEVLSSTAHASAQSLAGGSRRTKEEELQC
UniProt O94826, whole entry, looked up: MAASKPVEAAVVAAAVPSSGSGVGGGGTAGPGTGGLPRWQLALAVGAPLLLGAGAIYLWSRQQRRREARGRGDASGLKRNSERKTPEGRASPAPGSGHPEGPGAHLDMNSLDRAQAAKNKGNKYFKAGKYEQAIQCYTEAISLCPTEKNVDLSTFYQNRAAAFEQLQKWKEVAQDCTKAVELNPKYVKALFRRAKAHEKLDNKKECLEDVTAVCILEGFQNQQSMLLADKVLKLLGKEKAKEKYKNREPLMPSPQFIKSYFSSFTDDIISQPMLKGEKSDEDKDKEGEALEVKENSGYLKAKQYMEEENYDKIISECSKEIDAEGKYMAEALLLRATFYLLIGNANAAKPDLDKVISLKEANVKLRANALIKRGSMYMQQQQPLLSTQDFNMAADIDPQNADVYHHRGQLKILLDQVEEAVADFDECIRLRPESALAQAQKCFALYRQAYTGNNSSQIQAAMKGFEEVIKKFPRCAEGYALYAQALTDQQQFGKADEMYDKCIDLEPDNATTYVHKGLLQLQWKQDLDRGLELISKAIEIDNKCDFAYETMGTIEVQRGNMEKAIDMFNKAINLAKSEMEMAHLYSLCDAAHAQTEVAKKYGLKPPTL
UniProt Q9UKE5: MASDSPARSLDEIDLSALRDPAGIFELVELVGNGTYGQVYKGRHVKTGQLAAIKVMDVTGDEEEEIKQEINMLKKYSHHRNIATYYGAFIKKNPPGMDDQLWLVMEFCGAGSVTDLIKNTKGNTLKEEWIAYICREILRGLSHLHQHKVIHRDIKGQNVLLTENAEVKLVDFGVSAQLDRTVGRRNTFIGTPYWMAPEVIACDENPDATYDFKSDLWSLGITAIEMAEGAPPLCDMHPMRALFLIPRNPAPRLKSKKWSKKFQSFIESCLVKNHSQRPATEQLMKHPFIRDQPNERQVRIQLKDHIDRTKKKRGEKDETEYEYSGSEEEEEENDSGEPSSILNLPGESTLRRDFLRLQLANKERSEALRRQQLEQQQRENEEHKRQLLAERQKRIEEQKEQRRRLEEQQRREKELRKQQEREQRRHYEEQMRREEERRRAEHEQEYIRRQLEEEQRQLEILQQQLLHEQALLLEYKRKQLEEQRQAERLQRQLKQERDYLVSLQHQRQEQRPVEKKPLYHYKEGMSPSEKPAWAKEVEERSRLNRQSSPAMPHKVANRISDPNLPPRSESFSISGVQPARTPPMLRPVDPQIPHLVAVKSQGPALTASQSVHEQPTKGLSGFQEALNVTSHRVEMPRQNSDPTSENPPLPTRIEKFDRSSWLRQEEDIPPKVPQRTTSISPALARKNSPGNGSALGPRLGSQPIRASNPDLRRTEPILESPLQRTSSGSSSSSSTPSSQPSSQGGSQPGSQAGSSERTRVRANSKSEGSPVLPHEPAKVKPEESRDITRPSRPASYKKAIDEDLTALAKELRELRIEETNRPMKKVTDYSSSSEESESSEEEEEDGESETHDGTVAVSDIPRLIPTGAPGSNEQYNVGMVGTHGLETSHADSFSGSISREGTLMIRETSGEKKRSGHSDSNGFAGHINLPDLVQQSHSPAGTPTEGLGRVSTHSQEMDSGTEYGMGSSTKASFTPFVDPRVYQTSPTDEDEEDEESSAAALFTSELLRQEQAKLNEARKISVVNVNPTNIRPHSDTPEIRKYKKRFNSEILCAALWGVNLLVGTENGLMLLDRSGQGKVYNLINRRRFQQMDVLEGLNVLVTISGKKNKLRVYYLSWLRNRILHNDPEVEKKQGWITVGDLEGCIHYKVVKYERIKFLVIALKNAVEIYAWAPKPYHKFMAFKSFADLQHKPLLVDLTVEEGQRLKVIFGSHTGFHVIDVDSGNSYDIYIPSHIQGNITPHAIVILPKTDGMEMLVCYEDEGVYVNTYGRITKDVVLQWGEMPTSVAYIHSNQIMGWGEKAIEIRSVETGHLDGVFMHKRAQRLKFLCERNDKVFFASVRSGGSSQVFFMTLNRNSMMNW
UniProt Q9BQ61: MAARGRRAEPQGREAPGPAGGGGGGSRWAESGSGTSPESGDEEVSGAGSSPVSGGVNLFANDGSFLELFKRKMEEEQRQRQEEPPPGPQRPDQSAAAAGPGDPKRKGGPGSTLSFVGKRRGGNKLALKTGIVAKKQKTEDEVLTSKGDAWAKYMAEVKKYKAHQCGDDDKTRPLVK
UniProt O43399: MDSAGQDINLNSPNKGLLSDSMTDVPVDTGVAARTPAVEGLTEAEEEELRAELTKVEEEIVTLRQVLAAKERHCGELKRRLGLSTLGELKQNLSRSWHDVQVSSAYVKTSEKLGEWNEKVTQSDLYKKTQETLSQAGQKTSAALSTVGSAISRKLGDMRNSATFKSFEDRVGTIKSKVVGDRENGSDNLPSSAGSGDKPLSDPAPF
UniProt Q96F44: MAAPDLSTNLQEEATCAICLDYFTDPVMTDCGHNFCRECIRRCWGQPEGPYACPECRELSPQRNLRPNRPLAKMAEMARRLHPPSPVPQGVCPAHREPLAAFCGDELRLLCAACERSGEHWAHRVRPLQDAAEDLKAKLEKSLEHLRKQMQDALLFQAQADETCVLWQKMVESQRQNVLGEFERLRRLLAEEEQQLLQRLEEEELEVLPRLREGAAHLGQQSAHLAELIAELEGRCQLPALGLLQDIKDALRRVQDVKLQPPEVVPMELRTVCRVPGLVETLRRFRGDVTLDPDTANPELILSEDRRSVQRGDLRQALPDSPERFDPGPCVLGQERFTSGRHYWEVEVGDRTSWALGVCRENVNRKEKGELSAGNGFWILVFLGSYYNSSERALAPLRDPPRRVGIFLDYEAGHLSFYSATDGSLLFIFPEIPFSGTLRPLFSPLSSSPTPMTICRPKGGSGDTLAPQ
UniProt O43715: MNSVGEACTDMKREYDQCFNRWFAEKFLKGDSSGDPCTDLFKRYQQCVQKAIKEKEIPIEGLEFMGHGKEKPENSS
UniProt Q8IUR0, whole entry, looked up: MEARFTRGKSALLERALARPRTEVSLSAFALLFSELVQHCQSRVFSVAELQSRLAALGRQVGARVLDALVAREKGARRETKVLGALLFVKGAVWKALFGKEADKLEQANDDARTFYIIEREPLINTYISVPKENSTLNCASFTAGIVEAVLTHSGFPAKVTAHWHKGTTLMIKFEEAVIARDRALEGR

Key:
Experiment in all cases: log2 fold change, soluble protein after heating vs DMSO (PISA); higher = thermal stabilisation; K562 cells, 10 uM, 30 min; active = over 0.2 and 3.5 SD of the protein, either way, in both replicates (recomputed)
saracatinib = compound: CN1CCN(CCOc2cc(OC3CCOCC3)c3c(Nc4c(Cl)ccc5c4OCO5)ncnc3c2)CC1 [saracatinib]
How it was run: (§1)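 K562 cells at 2×10^6 cells/mL were treated for 30 min with 10 μM compound, and aliquots were heated for 3 min over 48°C-58°C before pooling. Extraction used PBS with 0.5% NP-40 at 4°C, and soluble protein was the supernatant after 21,000xg for 90 min, measured by TMTpro 16plex LC-MS/MS with channel sums equalised. Thermal stability values, relative to control samples and from duplicates, are log2 fold changes.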

sotrastaurin = compound: CN1CCN(c2nc(C3=C(c4c[nH]c5ccccc45)C(=O)NC3=O)c3ccccc3n2)CC1 [sotrastaurin]
How it was run: as §1

alvocidib = compound: CN1CC[C@H](c2c(O)cc(O)c3c(=O)cc(-c4ccccc4Cl)oc23)[C@H](O)C1 [alvocidib]
How it was run: as §1

Tubastatin A = compound: CN1CCc2c(c3ccccc3n2Cc2ccc(C(=O)NO)cc2)C1 [Tubastatin A]
How it was run: as §1

[1] = compound: CNC(=O)C1=CC=CC=C1NC2=NC(=NC=C2Cl)NC3=C(C=C(C=C3)N4CCOCC4)OC
How it was run: as §1

defactinib = compound: CNC(=O)c1ccc(Nc2ncc(C(F)(F)F)c(NCc3nccnc3N(C)S(C)(=O)=O)n2)cc1 [defactinib]
How it was run: as §1

rucaparib = compound: CNCc1ccc(-c2[nH]c3cc(F)cc4c3c2CCNC4=O)cc1 [rucaparib]
How it was run: as §1

[2] = compound: CNc1nc(-c2ccc3c(N)n[nH]c3c2)cc(N2C[C@@H](C(=O)NC3CCCCC3)CC[C@H]2C)n1
How it was run: as §1

encorafenib = compound: COC(=O)N[C@@H](C)CNc1nccc(-c2cn(C(C)C)nc2-c2cc(Cl)cc(NS(C)(=O)=O)c2F)n1 [encorafenib]
How it was run: as §1

[3] = compound: COC(=O)[C@H](CCSC)NC(=O)C1=C(C=C(C=C1)NC[C@H](CS)N)C2=CC=CC=C2
How it was run: as §1

[4] = compound: COC1=CC=C(C=C1)CN2C=CC3=C2C=C(C=C3)C(=O)NO
How it was run: as §1

filanesib = compound: CON(C)C(=O)N1N=C(c2cc(F)ccc2F)S[C@@]1(CCCN)c1ccccc1 [filanesib]
How it was run: as §1

zotarolimus = compound: CO[C@H]1C[C@@H]2CC[C@@H](C)[C@@](O)(O2)C(=O)C(=O)N2CCCC[C@H]2C(=O)O[C@H]([C@H](C)C[C@@H]2CC[C@H](n3cnnn3)[C@H](OC)C2)CC(=O)[C@H](C)/C=C(\C)[C@@H](O)[C@@H](OC)C(=O)[C@H](C)C[C@H](C)/C=C/C=C/C=C/1C [zotarolimus]
How it was run: as §1

idasanutlin = compound: COc1cc(C(=O)O)ccc1NC(=O)[C@@H]1N[C@@H](CC(C)(C)C)[C@](C#N)(c2ccc(Cl)cc2F)[C@H]1c1cccc(Cl)c1F [idasanutlin]
How it was run: as §1

alisertib = compound: COc1cc(Nc2ncc3c(n2)-c2ccc(Cl)cc2C(c2c(F)cccc2OC)=NC3)ccc1C(=O)O [alisertib]
How it was run: as §1

[5] = compound: COc1cc2nc(-c3cc(F)ccc3O)nc(N[C@@H]3CNC[C@H]3C(C)(C)O)c2cc1OC
How it was run: as §1

gefitinib = compound: COc1cc2ncnc(Nc3ccc(F)c(Cl)c3)c2cc1OCCCN1CCOCC1 [gefitinib]
How it was run: as §1

[6] = compound: COc1cccc2cc(-c3nc([C@H]4CC[C@H](C(=O)O)CC4)n4ncnc(N)c34)[nH]c12
How it was run: as §1

lapatinib = compound: CS(=O)(=O)CCNCc1ccc(-c2ccc3ncnc(Nc4ccc(OCc5cccc(F)c5)c(Cl)c4)c3c2)o1 [lapatinib]
How it was run: as §1

pictilisib = compound: CS(=O)(=O)N1CCN(Cc2cc3nc(-c4cccc5[nH]ncc45)nc(N4CCOCC4)c3s2)CC1 [pictilisib]
How it was run: as §1

Measured: log2 fold change

TOR1AIP1 isoform 3 (UniProt Q5JTV8)
inactive: saracatinib 0.02 | sotrastaurin 0.031 | alvocidib -0.017 | Tubastatin A -0.019 | [1] -0.002 | defactinib -0.021 | rucaparib 0.014 | [2] -0.046 | encorafenib -0.025 | [3] 0.036 | [4] -0.025 | filanesib -0.028 | zotarolimus -0.021 | idasanutlin -0.027 | alisertib 0.086 | [5] 0.027 | gefitinib 0.003 | [6] 0.013 | lapatinib -0.055 | pictilisib -0.008

TRMT61B (UniProt Q9BVS5)
inactive: saracatinib 0.049 | sotrastaurin 0.041 | alvocidib 0.11 | Tubastatin A -0.027 | [1] 0.028 | defactinib 0.087 | rucaparib 0.118 | [2] -0.039 | encorafenib 0.007 | [3] 0.011 | [4] -0.007 | filanesib 0.09 | zotarolimus -0.139 | idasanutlin 0.027 | alisertib -0.08 | [5] -0.057 | gefitinib 0.026 | [6] -0.022 | lapatinib 0.039 | pictilisib -0.065

TRMT6 (UniProt Q9UJA5)
inactive: saracatinib -0.069 | sotrastaurin 0.04 | alvocidib 0.187 | Tubastatin A 0.011 | [1] -0.049 | defactinib 0.057 | rucaparib 0.193 | [2] 0.04 | encorafenib 0.027 | [3] 0.017 | [4] -0.009 | filanesib 0.18 | zotarolimus 0 | idasanutlin 0.102 | alisertib -0.078 | [5] -0.161 | gefitinib 0.009 | [6] -0.079 | lapatinib 0.128 | pictilisib -0.047

TRPV2 (UniProt Q9Y5S1)
inactive: saracatinib 0.082 | sotrastaurin 0.041 | alvocidib -0.019 | Tubastatin A -0.018 | [1] -0.001 | defactinib -0.017 | rucaparib -0.028 | [2] -0.075 | encorafenib -0.003 | [3] -0.052 | [4] -0.034 | filanesib 0.007 | zotarolimus -0.024 | idasanutlin -0.039 | alisertib -0.029 | [5] 0.083 | gefitinib 0.031 | [6] 0.052 | lapatinib 0.026 | pictilisib -0.023

TRAFD1 (UniProt O14545)
inactive: saracatinib 0.09 | sotrastaurin 0.028 | alvocidib -0.057 | Tubastatin A 0.004 | [1] -0.032 | defactinib 0.002 | rucaparib 0.01 | [2] -0.02 | encorafenib -0.02 | [3] 0.054 | [4] 0.076 | filanesib -0.019 | zotarolimus -0.009 | idasanutlin 0.021 | alisertib -0.042 | [5] -0.06 | gefitinib -0.026 | [6] -0.01 | lapatinib 0.021 | pictilisib -0.014

TOP2B (UniProt Q02880)
inactive: saracatinib -0.134 | sotrastaurin -0.01 | alvocidib 0.288 | Tubastatin A -0.013 | [1] 0.037 | defactinib 0.416 | rucaparib 0.484 | [2] 0.128 | encorafenib 0.245 | [3] 0.053 | [4] 0.013 | filanesib 0.501 | zotarolimus 0.076 | idasanutlin 0.297 | alisertib -0.166 | [5] -0.158 | gefitinib -0.063 | [6] -0.316 | lapatinib 0.195 | pictilisib -0.066

TPD52L1 (UniProt Q16890)
inactive: saracatinib 0.034 | sotrastaurin -0.024 | alvocidib -0.042 | Tubastatin A 0.032 | [1] -0.034 | defactinib -0.031 | rucaparib -0.004 | [2] -0.022 | encorafenib -0.02 | [3] 0.021 | [4] -0.041 | filanesib 0.007 | zotarolimus -0.015 | idasanutlin -0.068 | alisertib 0.015 | [5] -0.044 | gefitinib -0.04 | [6] 0.032 | lapatinib 0.011 | pictilisib 0.031

TOMM70 (UniProt O94826)
inactive: saracatinib -0.018 | sotrastaurin -0.028 | alvocidib -0.063 | Tubastatin A -0.02 | [1] 0.02 | defactinib -0.03 | rucaparib 0.014 | [2] 0.051 | encorafenib 0.051 | [3] -0.001 | [4] 0.004 | filanesib -0.008 | zotarolimus 0.049 | idasanutlin -0.025 | alisertib 0.09 | [5] 0.072 | gefitinib 0.03 | [6] -0.025 | lapatinib -0.046 | pictilisib -0.002

TNIK isoform 6 (UniProt Q9UKE5)
inactive: saracatinib -0.052 | sotrastaurin -0.043 | alvocidib 0.033 | Tubastatin A -0.001 | [1] 0.002 | defactinib -0.005 | rucaparib 0.093 | [2] 0.007 | encorafenib 0.039 | [3] 0.028 | [4] -0.084 | filanesib -0.004 | zotarolimus 0.017 | idasanutlin -0.001 | alisertib -0.054 | [5] 0.047 | gefitinib -0.026 | [6] 0.025 | lapatinib -0.032 | pictilisib 0.108

TRIR (UniProt Q9BQ61)
inactive: saracatinib 0.019 | sotrastaurin 0.039 | alvocidib 0.022 | Tubastatin A 0.023 | [1] -0.05 | defactinib 0.009 | rucaparib -0.01 | [2] -0.044 | encorafenib -0.046 | [3] 0.09 | [4] 0.013 | filanesib 0.034 | zotarolimus -0.019 | idasanutlin 0.053 | alisertib -0.02 | [5] 0.074 | gefitinib 0.016 | [6] 0.049 | lapatinib -0.041 | pictilisib -0.01

TP53I3 (UniProt Q53FA7)
inactive: saracatinib -0.04 | sotrastaurin -0.004 | alvocidib -0.009 | Tubastatin A -0.023 | [1] -0.04 | defactinib -0.021 | rucaparib 0.01 | [2] -0.011 | encorafenib -0.055 | [3] 0.112 | [4] 0.013 | filanesib 0 | zotarolimus -0.005 | idasanutlin -0.008 | alisertib -0.058 | [5] 0.023 | gefitinib 0.008 | [6] 0.061 | lapatinib 0.003 | pictilisib -0.012

TPD52L2 isoform 7 (UniProt O43399)
inactive: saracatinib 0.015 | sotrastaurin 0.073 | alvocidib 0.018 | Tubastatin A -0.008 | [1] -0.016 | defactinib -0.01 | rucaparib -0.034 | [2] -0.02 | encorafenib -0.021 | [3] 0.036 | [4] 0.012 | filanesib -0.016 | zotarolimus -0.032 | idasanutlin 0.004 | alisertib -0.02 | [5] -0.03 | gefitinib 0.003 | [6] 0.053 | lapatinib -0.014 | pictilisib 0.035

TRIM11 (UniProt Q96F44)
inactive: saracatinib -0.004 | sotrastaurin -0.054 | alvocidib -0.088 | Tubastatin A 0.104 | [1] -0.08 | defactinib -0.063 | rucaparib 0.061 | [2] -0.128 | encorafenib 0.003 | [3] -0.035 | [4] -0.021 | filanesib 0.071 | zotarolimus 0.008 | idasanutlin -0.016 | alisertib 0.039 | [5] 0.097 | gefitinib 0.007 | [6] -0.035 | lapatinib 0.111 | pictilisib 0.094

TOLLIP (UniProt Q9H0E2)
inactive: saracatinib -0.061 | sotrastaurin -0.056 | alvocidib -0.168 | Tubastatin A 0.003 | [1] 0.027 | defactinib -0.063 | rucaparib -0.057 | [2] 0.001 | encorafenib -0.035 | [3] -0.068 | [4] 0.097 | filanesib -0.115 | zotarolimus 0.006 | idasanutlin 0.019 | alisertib 0.165 | [5] -0.029 | gefitinib -0.03 | [6] -0.051 | lapatinib 0.023 | pictilisib -0.023

TRIAP1 (UniProt O43715)
inactive: saracatinib -0.07 | sotrastaurin 0.024 | alvocidib -0.126 | Tubastatin A 0.029 | [1] -0.057 | defactinib 0.069 | rucaparib -0.021 | [2] -0.014 | encorafenib -0.155 | [3] -0.036 | [4] -0.049 | filanesib 0.014 | zotarolimus -0.014 | idasanutlin -0.091 | alisertib -0.063 | [5] -0.065 | gefitinib 0.017 | [6] 0.032 | lapatinib -0.103 | pictilisib -0.055

TRAPPC5 (UniProt Q8IUR0)
inactive: saracatinib -0.072 | sotrastaurin -0.086 | alvocidib -0.06 | Tubastatin A 0.033 | [1] 0.01 | defactinib -0.052 | rucaparib -0.011 | [2] 0.07 | encorafenib 0.054 | [3] -0.004 | [4] -0.046 | filanesib -0.079 | zotarolimus 0.013 | idasanutlin -0.088 | alisertib -0.002 | [5] -0.029 | gefitinib -0.026 | [6] 0.033 | lapatinib 0.053 | pictilisib -0.08

Two records picked at random from those above:
TRMT6 (UniProt Q9UJA5)
inactive: saracatinib -0.069 | sotrastaurin 0.04 | alvocidib 0.187 | Tubastatin A 0.011 | [1] -0.049 | defactinib 0.057 | rucaparib 0.193 | [2] 0.04 | encorafenib 0.027 | [3] 0.017 | [4] -0.009 | filanesib 0.18 | zotarolimus 0 | idasanutlin 0.102 | alisertib -0.078 | [5] -0.161 | gefitinib 0.009 | [6] -0.079 | lapatinib 0.128 | pictilisib -0.047

TP53I3 (UniProt Q53FA7)
inactive: saracatinib -0.04 | sotrastaurin -0.004 | alvocidib -0.009 | Tubastatin A -0.023 | [1] -0.04 | defactinib -0.021 | rucaparib 0.01 | [2] -0.011 | encorafenib -0.055 | [3] 0.112 | [4] 0.013 | filanesib 0 | zotarolimus -0.005 | idasanutlin -0.008 | alisertib -0.058 | [5] 0.023 | gefitinib 0.008 | [6] 0.061 | lapatinib 0.003 | pictilisib -0.012
